# The list shows a part of the results. Small differences around the control level are noise.
# By UniProt entry, the sequences of proteins in these tests, tags left out. Where a name states a change or a piece, a line headed by the entry shows the natural chain unless it says otherwise.
# UniProt Q99442: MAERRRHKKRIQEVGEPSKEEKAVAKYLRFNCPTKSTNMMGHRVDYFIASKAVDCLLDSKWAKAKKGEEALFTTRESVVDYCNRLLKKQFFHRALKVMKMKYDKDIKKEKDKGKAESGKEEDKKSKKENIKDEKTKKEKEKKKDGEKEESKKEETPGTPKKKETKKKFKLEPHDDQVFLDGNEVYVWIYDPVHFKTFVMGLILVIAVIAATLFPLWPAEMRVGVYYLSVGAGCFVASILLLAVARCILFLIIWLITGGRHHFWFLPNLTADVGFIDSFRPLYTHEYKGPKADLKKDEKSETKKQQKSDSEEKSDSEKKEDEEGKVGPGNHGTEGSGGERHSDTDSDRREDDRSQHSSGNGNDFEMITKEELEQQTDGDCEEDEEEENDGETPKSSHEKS
# UniProt Q96Q04: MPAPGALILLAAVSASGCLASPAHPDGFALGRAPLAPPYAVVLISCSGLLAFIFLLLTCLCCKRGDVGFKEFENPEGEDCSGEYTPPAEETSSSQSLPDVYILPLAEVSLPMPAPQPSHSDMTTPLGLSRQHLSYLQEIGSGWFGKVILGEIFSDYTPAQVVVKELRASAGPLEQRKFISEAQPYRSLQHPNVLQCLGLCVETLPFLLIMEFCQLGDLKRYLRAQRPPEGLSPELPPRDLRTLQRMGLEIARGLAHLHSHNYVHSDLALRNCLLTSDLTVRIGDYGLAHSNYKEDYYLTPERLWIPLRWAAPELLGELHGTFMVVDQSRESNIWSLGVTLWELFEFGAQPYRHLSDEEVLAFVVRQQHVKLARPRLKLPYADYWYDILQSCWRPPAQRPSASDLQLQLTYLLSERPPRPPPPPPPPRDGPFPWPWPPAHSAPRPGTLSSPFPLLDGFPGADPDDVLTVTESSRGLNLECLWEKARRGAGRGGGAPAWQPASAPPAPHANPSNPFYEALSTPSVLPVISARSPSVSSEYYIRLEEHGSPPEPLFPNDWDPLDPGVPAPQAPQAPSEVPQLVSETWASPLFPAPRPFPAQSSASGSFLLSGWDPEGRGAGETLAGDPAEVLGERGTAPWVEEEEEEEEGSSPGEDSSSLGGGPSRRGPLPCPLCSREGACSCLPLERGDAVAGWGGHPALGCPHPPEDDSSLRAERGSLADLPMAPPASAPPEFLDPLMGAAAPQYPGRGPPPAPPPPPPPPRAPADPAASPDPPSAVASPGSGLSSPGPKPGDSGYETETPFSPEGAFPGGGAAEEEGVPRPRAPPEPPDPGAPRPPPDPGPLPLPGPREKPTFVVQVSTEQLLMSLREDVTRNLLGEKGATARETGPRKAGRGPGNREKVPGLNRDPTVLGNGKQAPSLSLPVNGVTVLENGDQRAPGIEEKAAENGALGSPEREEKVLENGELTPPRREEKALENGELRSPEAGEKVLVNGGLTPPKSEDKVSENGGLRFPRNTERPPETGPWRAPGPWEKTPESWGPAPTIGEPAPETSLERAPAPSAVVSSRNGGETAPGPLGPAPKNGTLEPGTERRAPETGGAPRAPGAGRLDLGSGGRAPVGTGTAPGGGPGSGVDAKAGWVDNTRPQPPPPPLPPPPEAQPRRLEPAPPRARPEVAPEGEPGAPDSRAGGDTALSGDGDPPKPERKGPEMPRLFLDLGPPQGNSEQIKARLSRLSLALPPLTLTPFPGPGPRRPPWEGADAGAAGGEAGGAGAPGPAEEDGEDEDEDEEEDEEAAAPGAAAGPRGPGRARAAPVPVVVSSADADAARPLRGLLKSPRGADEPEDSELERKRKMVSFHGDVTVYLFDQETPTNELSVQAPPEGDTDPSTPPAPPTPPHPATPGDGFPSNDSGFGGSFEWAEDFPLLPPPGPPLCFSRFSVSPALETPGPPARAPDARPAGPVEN
# UniProt Q96L50: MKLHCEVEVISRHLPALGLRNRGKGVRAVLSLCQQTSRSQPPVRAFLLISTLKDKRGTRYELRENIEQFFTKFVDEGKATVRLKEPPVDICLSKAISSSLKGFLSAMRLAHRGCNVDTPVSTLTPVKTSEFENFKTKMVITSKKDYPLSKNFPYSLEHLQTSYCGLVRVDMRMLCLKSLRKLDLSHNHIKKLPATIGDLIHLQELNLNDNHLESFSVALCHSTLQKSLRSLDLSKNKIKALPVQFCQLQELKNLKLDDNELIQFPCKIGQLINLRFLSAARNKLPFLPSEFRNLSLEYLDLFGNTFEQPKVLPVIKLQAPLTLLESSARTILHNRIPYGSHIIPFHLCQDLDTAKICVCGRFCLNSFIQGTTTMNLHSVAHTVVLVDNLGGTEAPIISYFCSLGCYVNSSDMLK
# UniProt Q96PX1: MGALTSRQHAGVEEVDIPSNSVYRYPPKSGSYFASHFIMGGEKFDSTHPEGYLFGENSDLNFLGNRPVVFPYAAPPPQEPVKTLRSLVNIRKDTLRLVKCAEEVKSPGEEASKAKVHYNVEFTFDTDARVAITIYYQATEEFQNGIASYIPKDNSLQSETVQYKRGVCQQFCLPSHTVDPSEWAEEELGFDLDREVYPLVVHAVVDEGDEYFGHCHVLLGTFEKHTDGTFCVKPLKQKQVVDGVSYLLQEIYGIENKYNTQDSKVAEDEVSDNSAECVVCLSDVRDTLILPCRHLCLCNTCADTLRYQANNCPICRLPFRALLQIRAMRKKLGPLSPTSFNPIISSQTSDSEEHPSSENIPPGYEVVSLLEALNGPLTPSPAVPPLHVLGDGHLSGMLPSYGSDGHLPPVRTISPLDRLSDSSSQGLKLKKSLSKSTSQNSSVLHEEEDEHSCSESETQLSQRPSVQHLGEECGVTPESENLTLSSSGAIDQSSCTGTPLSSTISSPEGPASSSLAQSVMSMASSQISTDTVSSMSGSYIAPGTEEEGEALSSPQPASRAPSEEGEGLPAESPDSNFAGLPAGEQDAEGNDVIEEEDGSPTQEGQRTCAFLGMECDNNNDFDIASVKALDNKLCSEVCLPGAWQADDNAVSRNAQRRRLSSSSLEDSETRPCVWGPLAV
# UniProt Q96JB2: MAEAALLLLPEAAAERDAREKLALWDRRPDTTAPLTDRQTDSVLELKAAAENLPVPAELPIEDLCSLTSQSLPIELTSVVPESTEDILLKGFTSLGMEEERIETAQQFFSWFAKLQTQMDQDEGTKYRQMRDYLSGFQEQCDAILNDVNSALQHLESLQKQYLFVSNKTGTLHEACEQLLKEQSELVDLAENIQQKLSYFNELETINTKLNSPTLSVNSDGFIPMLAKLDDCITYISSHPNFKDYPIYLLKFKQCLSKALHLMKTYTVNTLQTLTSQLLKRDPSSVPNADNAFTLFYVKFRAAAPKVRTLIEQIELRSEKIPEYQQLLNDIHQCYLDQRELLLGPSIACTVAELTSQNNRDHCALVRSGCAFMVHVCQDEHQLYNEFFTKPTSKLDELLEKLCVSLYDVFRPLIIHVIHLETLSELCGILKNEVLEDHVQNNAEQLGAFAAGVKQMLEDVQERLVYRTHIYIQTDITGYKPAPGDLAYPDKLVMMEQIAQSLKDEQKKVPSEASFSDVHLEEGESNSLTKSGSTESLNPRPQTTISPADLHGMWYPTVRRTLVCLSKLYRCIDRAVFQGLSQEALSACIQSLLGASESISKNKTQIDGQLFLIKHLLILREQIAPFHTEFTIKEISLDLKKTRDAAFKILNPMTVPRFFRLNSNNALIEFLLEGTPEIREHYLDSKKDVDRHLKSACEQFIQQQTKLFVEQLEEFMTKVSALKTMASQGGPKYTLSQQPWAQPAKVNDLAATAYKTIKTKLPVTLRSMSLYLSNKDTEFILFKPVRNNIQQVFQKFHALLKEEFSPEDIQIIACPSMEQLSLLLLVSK
# UniProt Q96QE3: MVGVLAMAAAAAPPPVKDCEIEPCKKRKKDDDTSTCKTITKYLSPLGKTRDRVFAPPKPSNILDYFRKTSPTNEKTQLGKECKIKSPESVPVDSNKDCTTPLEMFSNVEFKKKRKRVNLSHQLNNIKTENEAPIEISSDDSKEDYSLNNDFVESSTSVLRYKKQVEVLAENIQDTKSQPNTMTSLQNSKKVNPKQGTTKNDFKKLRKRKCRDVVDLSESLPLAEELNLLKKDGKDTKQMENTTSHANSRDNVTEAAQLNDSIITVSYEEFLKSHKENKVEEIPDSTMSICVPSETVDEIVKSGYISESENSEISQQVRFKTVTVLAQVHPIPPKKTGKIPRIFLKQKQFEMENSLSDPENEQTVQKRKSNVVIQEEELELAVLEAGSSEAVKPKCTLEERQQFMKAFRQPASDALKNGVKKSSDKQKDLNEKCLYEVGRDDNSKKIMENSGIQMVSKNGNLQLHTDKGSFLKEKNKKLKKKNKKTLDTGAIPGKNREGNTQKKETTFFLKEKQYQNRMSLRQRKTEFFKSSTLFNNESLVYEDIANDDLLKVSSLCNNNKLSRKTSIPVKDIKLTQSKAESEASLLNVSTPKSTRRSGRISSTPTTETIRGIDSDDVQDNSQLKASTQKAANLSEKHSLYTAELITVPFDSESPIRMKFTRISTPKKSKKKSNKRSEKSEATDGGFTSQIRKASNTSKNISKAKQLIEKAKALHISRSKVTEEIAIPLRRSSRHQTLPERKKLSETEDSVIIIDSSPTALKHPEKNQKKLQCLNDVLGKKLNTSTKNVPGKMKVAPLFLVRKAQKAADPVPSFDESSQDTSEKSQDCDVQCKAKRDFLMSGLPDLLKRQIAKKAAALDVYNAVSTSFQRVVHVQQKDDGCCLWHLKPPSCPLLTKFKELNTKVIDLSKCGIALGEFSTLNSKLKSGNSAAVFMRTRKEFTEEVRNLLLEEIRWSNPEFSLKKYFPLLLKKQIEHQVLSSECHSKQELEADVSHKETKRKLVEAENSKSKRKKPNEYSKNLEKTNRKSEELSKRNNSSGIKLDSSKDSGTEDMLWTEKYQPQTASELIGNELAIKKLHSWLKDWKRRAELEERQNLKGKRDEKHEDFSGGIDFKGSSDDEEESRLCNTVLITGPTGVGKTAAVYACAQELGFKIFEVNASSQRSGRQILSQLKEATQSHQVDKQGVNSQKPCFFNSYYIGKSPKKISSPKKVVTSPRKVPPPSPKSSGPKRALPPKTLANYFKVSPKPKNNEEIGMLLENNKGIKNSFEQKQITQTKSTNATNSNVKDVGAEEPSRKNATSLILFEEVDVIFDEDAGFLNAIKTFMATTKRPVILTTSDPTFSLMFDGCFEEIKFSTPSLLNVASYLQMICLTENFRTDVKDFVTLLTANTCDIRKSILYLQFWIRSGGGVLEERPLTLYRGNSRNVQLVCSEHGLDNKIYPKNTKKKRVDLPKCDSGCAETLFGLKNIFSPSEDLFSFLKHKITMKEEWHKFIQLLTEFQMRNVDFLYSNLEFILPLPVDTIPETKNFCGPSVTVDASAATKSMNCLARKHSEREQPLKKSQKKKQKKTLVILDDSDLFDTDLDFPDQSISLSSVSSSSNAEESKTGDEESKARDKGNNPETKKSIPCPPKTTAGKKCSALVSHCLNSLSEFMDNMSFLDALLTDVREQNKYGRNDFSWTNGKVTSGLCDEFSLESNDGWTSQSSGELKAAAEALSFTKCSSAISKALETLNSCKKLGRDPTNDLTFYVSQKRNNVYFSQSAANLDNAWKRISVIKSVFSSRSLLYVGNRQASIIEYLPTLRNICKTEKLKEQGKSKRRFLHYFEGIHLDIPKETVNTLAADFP
# UniProt Q96TA2: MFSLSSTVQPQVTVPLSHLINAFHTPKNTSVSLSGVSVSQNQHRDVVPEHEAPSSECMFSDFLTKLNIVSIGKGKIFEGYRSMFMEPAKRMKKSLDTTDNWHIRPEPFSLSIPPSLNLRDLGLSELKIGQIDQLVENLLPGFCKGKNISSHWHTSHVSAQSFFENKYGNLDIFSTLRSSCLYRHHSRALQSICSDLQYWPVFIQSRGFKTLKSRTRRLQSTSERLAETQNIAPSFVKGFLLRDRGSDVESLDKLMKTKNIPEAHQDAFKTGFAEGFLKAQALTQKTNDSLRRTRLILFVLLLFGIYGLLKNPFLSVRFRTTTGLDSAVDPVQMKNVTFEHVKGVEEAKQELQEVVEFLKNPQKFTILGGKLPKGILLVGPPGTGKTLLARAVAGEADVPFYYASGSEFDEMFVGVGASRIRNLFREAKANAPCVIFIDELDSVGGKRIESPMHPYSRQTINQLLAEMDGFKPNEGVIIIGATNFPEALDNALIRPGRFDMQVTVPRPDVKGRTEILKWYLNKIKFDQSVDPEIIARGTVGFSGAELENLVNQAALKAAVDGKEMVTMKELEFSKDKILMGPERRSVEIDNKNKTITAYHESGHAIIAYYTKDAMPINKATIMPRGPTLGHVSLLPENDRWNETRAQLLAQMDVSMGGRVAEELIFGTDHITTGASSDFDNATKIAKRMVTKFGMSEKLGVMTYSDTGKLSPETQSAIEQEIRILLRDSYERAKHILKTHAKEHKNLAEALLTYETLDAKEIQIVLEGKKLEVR
# UniProt Q96IX9: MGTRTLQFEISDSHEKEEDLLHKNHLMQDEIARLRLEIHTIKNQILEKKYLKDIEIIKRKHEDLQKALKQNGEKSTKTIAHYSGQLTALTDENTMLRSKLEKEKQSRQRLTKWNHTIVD
# Compound: CN[C@@H]1C[C@H]2O[C@@](C)([C@@H]1OC)n1c3ccccc3c3c4c(c5c6ccccc6n2c5c31)C(=O)NC4 [staurosporine]
# Test: log2 fold change of tryptic peptide abundance, ligand vs vehicle (limited proteolysis) (log2 ratio); higher = more trypsin-susceptible (destabilized)
# Conditions: ligand concentration: 20 uM; sample: K562 cleared lysate; digestion: 4 min, 22 C (HT-PELSA RT4min, Orbitrap Astral)
row,Target,log2 fold change
1,"UniProt Q96HE9 (peptide sequence: VTNVLITPGK, peptide start residue: 281)",-0.237
2,"TCEANC2 (peptide sequence: IQNSPQKK, peptide start residue: 11) (UniProt Q96MN5)",0.534
3,"SEC62 (peptide sequence: ENIKDEK, peptide start residue: 128) (UniProt Q99442)",0.0579
4,"OXNAD1 (peptide sequence: KTDHMER, peptide start residue: 47) (UniProt Q96HP4)",0.274
5,"UniProt Q96Q04 (peptide sequence: AAPVPVVVSSADADAARPLR, peptide start residue: 1308)",0.00188
6,"ALS2 (peptide sequence: DSPEILSR, peptide start residue: 1334) (UniProt Q96Q42)",-0.185
7,"TUBGCP5 (peptide sequence: LSISFENVDTAK, peptide start residue: 777) (UniProt Q96RT8)",-0.438
8,"UniProt Q96L50 (peptide sequence: MKLHCEVEVISRHLPALGLR, peptide start residue: 1)",-0.306
9,"UniProt Q96PX1 (peptide sequence: YQANNCPICR, peptide start residue: 308)",-0.00674
10,"ADO (peptide sequence: AEDLNIAPR, peptide start residue: 63) (UniProt Q96SZ5)",-0.106
11,"COG3 (peptide sequence: EQSELVDLAENIQQK, peptide start residue: 182) (UniProt Q96JB2)",0.646
12,"ATAD5 (peptide sequence: SKVTEEIAIPLRR, peptide start residue: 718) (UniProt Q96QE3)",0.435
13,"ZNF830 (peptide sequence: VINQEELR, peptide start residue: 15) (UniProt Q96NB3)",-0.155
14,"ZC3H10 (peptide sequence: GGGGTGGGSTGSVLPGRR, peptide start residue: 169) (UniProt Q96K80)",-0.178
15,"SIN3A (peptide sequence: SDSPAIQLR, peptide start residue: 938) (UniProt Q96ST3)",-0.264
16,"DEPDC7 (peptide sequence: FTTIPNQDSQLGKENK, peptide start residue: 134) (UniProt Q96QD5)",-0.231
17,"TUBGCP6 (peptide sequence: LKEQFVK, peptide start residue: 709) (UniProt Q96RT7)",-0.414
18,"MAGI1 (peptide sequence: SSPHGEKR, peptide start residue: 1282) (UniProt Q96QZ7)",1.04
19,"ARAP1 (peptide sequence: VVEDLINHYVVVFSVDEEELRK, peptide start residue: 1127) (UniProt Q96P48)",0.681
20,"PGAM5 (peptide sequence: NVESGEEELASK, peptide start residue: 77) (UniProt Q96HS1)",0.0506
21,"REXO5 (peptide sequence: LFLGLEAVILPK, peptide start residue: 621) (UniProt Q96IC2)",-0.312
22,"ZFYVE19 (peptide sequence: QKPSTSQSQGLTR, peptide start residue: 160) (UniProt Q96K21)",-0.273
23,"YME1L1 (peptide sequence: LGVMTYSDTGK, peptide start residue: 698) (UniProt Q96TA2)",0.412
24,"UniProt Q96IX9 (peptide sequence: KHEDLQK, peptide start residue: 1410)",0.125
25,"TRIM47 (peptide sequence: NHTLSELLQLR, peptide start residue: 70) (UniProt Q96LD4)",-0.388
26,"PYURF (peptide sequence: KQEEVEQR, peptide start residue: 107) (UniProt Q96I23)",-0.144
27,"TONSL (peptide sequence: SGNVLEEAK, peptide start residue: 383) (UniProt Q96HA7)",-0.381

# Looked up above.
# log2 fold change with YME1L1 (peptide sequence: LGVMTYSDTGK, peptide start residue: 698) (UniProt Q96TA2) is entered as 0.412
# log2 fold change with SIN3A (peptide sequence: SDSPAIQLR, peptide start residue: 938) (UniProt Q96ST3) is entered as -0.264

# Source: the supplement of paper PMC12819154, “High-throughput peptide-centric local stability assay extends protein–ligand identification to membrane proteins, tissues and bacteria” (Nature Structural & Molecular Biology, 2025)
